From PubChem BioAssay AID504327 (National Center for Advancing Translational Sciences (NCATS), 2011)
Hit rate of the full screen: of about 390,000 compounds, about 820 (0.21%) were called active. The inconclusive results got no clear call from the source; some entries with a clear call stand among them for comparison. Calls follow the shape of the dose curve; as a rule, active = well fitted inhibition curve with a large enough effect; inconclusive = small, poorly fitted or top-dose-only effect, or another doubt; inactive = no such curve, though single readings can be large or run the other way. Potencies beside an inconclusive call are fits to weak or partial responses and may not hold up.
% is scaled to controls: 0 for no effect and ±100 for the full control effect; potency is read from the fitted curve at half-maximal effect.

Sequences of proteins named here, by UniProt entry; tags and fusion partners are left off.
UniProt Q92830, whole entry, looked up: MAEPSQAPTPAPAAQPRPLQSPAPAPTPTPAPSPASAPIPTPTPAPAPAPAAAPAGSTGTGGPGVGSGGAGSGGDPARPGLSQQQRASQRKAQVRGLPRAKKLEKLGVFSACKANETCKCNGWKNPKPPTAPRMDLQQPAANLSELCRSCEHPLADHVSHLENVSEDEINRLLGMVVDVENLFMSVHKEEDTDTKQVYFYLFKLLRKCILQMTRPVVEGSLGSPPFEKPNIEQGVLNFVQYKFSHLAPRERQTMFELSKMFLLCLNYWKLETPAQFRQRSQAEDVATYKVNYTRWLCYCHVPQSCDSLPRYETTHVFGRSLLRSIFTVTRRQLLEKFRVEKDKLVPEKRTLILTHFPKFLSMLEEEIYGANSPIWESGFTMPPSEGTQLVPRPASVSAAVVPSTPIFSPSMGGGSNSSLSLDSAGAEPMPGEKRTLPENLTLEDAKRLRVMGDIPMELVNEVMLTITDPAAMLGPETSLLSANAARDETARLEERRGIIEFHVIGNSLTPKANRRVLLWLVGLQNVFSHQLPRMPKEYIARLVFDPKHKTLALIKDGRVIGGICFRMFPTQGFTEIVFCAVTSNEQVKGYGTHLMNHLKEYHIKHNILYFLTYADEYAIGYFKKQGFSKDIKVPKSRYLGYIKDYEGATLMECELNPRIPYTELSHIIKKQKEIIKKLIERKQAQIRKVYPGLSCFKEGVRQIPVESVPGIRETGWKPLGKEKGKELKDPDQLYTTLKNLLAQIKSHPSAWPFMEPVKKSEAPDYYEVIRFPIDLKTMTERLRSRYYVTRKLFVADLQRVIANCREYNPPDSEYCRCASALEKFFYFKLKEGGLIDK

The compounds below were run against Histone acetyltransferase KAT2A (Homo sapiens) (UniProt Q92830) (assay: qHTS Assay for Inhibitors of GCN5L2). Conditions: GCN5L2 HAT assay, ThioGlo1 CoA-SH fluorescence; activity change, negative = inhibition: at 58.9 µM (top of the series) unless noted.
Method in brief: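 Fluorescence readout, Ex340nm/Em540nm: ThioGlo1 (50uM final) reacts with free CoA thiol released as 20nM GCN5L2 acetylates H3(1-25) peptide (75uM) using acetyl-CoA (70uM). Compound and enzyme sat 15 min beforehand; 20 min room-temperature reaction.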
In the case of `COc1ccc(-c2c(C)nn(-c3ccccc3)c2N)cc1`, the Potency is reported as inconclusive: 39.8 µM [inhibitor, single point].
`COc1cccc(CSc2nnc(-c3ccco3)n2C)c1` was tested, and the “activity change, negative = inhibition” value was inactive: -3.18%.
For `CC1(C)CC(=O)C(C=Nc2ccccc2C(=O)O)=C(O)C1`, the Potency was inconclusive: 31.6 µM [inhibitor, single point].
For `CCc1ccc(CN(C)C(=O)CCc2nnc(COc3ccccc3)o2)cc1`, the “activity change, negative = inhibition” value was inactive: 0%.
In the case of `CC(C)[C@H](NC(=O)[C@H](CCCCN)NC(=O)[C@@H](NC(=O)[C@@H]1CCCN1C(=O)[C@H](CCCN=C(N)N)NC(=O)[C@H](CCCN=C(N)N)NC(=O)[C@H](CCCCN)NC(=O)[C@H](CCCCN)NC(=O)CNC(=O)[C@@H](NC(=O)[C@@H]1CCCN1C(=O)[C@@H](N)CCCCN)C(C)C)C(C)C)C(=O)N[C@@H](Cc1ccc(O)cc1)C(=O)N1CCC[C@H]1C(=O)O`, the “activity change, negative = inhibition” value is reported as inactive: 0.293%.
`CCOc1ccccc1NC(=O)Cn1c(=O)n(Cc2ccccc2)c(=O)c2cccnc21` was tested, and the “activity change, negative = inhibition” value was inactive: -2.33%.
In the case of `Cc1cc(S(=O)(=O)NCC(=O)O)ccc1F`, the “activity change, negative = inhibition” value is reported as inactive: -5.26%.
`CS(=O)(=O)N(CC(=O)N1CCOCC1)c1ccccc1` was tested, and the Potency was inconclusive: 0.631 µM [inhibitor, single point].
`CC(NC(=O)NC(=O)c1ccc(Cl)cc1)c1ccccc1` (centres undefined) was tested, and the Potency was inconclusive: 4.47 µM [inhibitor, full curve, poor fit].
`Cc1ccc(-n2ncc(C(=O)NCCc3c[nH]c4ccccc34)c2C2CCN(C(=O)OC(C)(C)C)CC2)cc1C` was tested, and the “activity change, negative = inhibition” value was inactive: -16.8%.
In the case of `COc1cccc(CNC(=O)CCNS(=O)(=O)c2ccc3[nH]c(=O)oc3c2)c1`, the “activity change, negative = inhibition” value is reported as inactive: -30.1%.
`Cc1cccc(N2CCN(C(=O)CCS(=O)(=O)c3ccc(Br)cc3)CC2C)c1` (centres undefined) was tested, and the Potency was inconclusive: 39.8 µM [inhibitor, single point].
`CN(C(=O)COC(=O)COc1ccc(Cl)cc1Cl)c1c(N)n(Cc2ccccc2)c(=O)[nH]c1=O` was tested, and the “activity change, negative = inhibition” value was inactive: -6.7%.
`CC(NC(=O)c1sc2cc([N+](=O)[O-])ccc2c1Cl)C(C)(C)C` (centres undefined) was tested, and the Potency was inconclusive: 15.8 µM [inhibitor, partial curve].
With `CCN1CCN(P2(=O)C=C(c3ccccc3)OC(c3ccccc3)=C2)CC1` the “activity change, negative = inhibition” value was inactive: 1.85%.
For `O=C(Nc1ccc(Cl)cc1)c1cc(-c2cccs2)on1`, the Potency was inconclusive: 3.16 µM [inhibitor, partial curve, poor fit].
In the case of `O=C(CSc1ccccc1)Nc1ccc(-c2nc3ccccc3[nH]2)cc1`, the Potency is reported as inconclusive: 1.58 µM [inhibitor, single point].
With `COc1ccc(Oc2ncc3nc(-c4ccc(F)cc4)c(=O)n(C)c3n2)cc1` the Potency was inconclusive: 12.6 µM [inhibitor, partial curve].
For `CCC1Sc2ccc(S(=O)(=O)CCC(=O)Nc3c(Cl)cc(OC)cc3OC)cc2NC1=O` (centres undefined), the Potency was inconclusive: 0.1 µM [inhibitor, full curve, poor fit].
In the case of `Nc1ccc(O)c(C(=O)O)c1`, the Potency is reported as inconclusive: 7.94 µM [inhibitor, single point].
In the case of `COc1ccc(N2C(=O)CC(N(CCc3ccccc3)C(=O)/C=C/C(=O)O)C2=O)cc1` (centres undefined), the Potency is reported as inconclusive: 39.8 µM [inhibitor, single point].
With `Cn1c(=O)[nH]c(=O)c2c1[nH]c(=S)n2Cc1ccccc1` the Potency was inconclusive: 35.5 µM [inhibitor, single point].
In the case of `CC(Nc1cccc2ccccc12)C(=O)N/N=C/c1ccc([N+](=O)[O-])cc1` (centres undefined), the Potency is reported as inconclusive: 2.51 µM [inhibitor, partial curve].
`COc1ccc(N(CC(=O)N2CCN(C)CC2)S(=O)(=O)c2ccccc2)cc1` was tested, and the “activity change, negative = inhibition” value was inactive: -2.69%.
`Cc1ccc(S(C)(=O)=NC(=O)NC(=O)c2c(F)cccc2Cl)cc1` (centres undefined) was tested, and the Potency was inconclusive: 35.5 µM [inhibitor, single point].
In the case of `COc1ccc(S(=O)(=O)N2CCC3(CC2)OCCN3S(=O)(=O)c2ccc(OC)cc2)cc1`, the Potency is reported as inconclusive: 35.5 µM [inhibitor, single point].
In the case of `Cc1nnsc1-c1nc2ccccc2[nH]1`, the Potency is reported as inconclusive: 39.8 µM [inhibitor, single point].
In the case of `CCCOC(=O)CSC1=C(C#N)C(c2ccccc2OCC)C(C#N)C(=O)N1` (centres undefined), the Potency is reported as inconclusive: 28.2 µM [inhibitor, single point].
`Cc1ccc(SCc2c(-c3ccccc3)nn(C)c2Cl)cc1` was tested, and the activity change, negative = inhibition was inconclusive: -35.9% [inhibitor].
In the case of `CCCCc1ccc(Nc2nc(CCC)cc(=O)[nH]2)cc1`, the “activity change, negative = inhibition” value is reported as inactive: -9.3%.
`CC(=O)N[C@@H](CC(=O)O)C(=O)N[C@@H](CCC(=O)O)C(=O)O` was tested, and the “activity change, negative = inhibition” value was inactive: 2.37% [at 21.4 µM].
For `Cc1cncc(C(=O)O)[n+]1[O-]`, the “activity change, negative = inhibition” value was inactive: -11%.
In the case of `Cc1cccc(N(C)S(=O)(=O)c2ccc3[nH]c(=O)c(=O)[nH]c3c2)c1`, the Potency is reported as inconclusive: 0.891 µM [inhibitor, full curve, poor fit].
`Cc1c(NC(=O)c2ccc(S(=O)(=O)N3CCOCC3)cc2)cccc1[N+](=O)[O-]` was tested, and the Potency was inconclusive: 0.562 µM [inhibitor, full curve, poor fit].
With `COc1cccc(/C=C2\CCc3ccccc3C2=O)c1` the “activity change, negative = inhibition” value was inactive: 1.81%.
In the case of `Cc1cc(/C=C(\C#N)C(=O)Nc2ccccc2)c(C)n1-c1ccc2c(c1)OCO2`, the “activity change, negative = inhibition” value is reported as inactive: -6.56%.
`COc1ccc(Cc2nnc(NC(=O)c3ccccc3F)s2)cc1OC` was tested, and the Potency was inconclusive: 39.8 µM [inhibitor, single point].
For `CC1CCN(CC(=O)Nc2ccc(S(=O)(=O)N3C(C)CCCC3C)cc2)CC1` (centres undefined), the Potency was inconclusive: 3.16 µM [inhibitor, partial curve].
With `Cc1nc(N2CCN(C)CC2)c2sc(=S)n(-c3ccccc3)c2n1` the “activity change, negative = inhibition” value was inactive: 0.158%.
For `CCCOc1ccc(/C=C/c2c([N+](=O)[O-])c(=O)n(C)c(=O)n2C)cc1`, the “activity change, negative = inhibition” value was inactive: -5.09%.
For `CCOC(=O)Cc1nc2cc(Cl)ccc2o1`, the Potency was inconclusive: 39.8 µM [inhibitor, single point].
With `CCN(CC)c1ccc(/C=N/NC(=O)c2cccc(S(=O)(=O)Nc3ccccc3OC)c2)c(O)c1` the Potency was inconclusive: 39.8 µM [inhibitor, single point].
With `C=C(C)C1Cc2c(C)nn(-c3ccccc3)c2C1` (centres undefined) the “activity change, negative = inhibition” value was inactive: 1.68%.
With `C/C(=N\NC(=O)c1cc(-c2ccc(C)s2)nc2ccccc12)c1cccnc1` the Potency was inconclusive: 31.6 µM [inhibitor, single point].
